“And” between values parts separate entries of the source, which are not always exact repeats. Equal entries are not always repeated. In all, about 2,000 compounds went through this assay and fewer than 10 were called active.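 The calls were made as follows: active = growth inhibition of at least 75% in every replicate, which also brings the mean inhibition to 75% or more; inconclusive = mean inhibition 75% or more but some replicate under 75%; inactive = the rest.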 The list shows a part of the results.
Assay: growth inhibition of PfHsp90-dependent yeast, primary screen, antimalarial PfHsp90 inhibitor project, S. cerevisiae, BacTiter-Glo luminescence (AID 504594);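 also: 0% = DMSO neutral control wells and 100% = 20 µM radicicol control wells; higher value means stronger growth inhibition because the sign is flipped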
Conditions: S. cerevisiae expressing PfHsp90, BacTiter-Glo growth, 48 h; at 9.4 µM; active compounds read high

Structure (SMILES)	growth inhibition
COC(=O)C1[C@H]2C(=O)N(Cc3cccs3)C[C@]23C=C[C@H]1O3 (stereo not given in full)	inactive: 1.27%
CC(C)NC(=O)C1(c2ccccc2)CCOCC1	inactive: -8.01%
CC1(C)CC(=O)C(C2(O)C(=O)Nc3ccccc32)CO1 (stereo not given)	inactive: 2.4%
O=C(CCCCC(=O)NC1CCCC1)NC1CCCC1	inactive: -14.7%
CC[C@H](C)C(=O)O[C@H]1C[C@@H](C)C=C2C=C[C@H](C)[C@H](CC[C@@H]3C[C@@H](O)CC(=O)O3)[C@H]21	inactive: -16.1%
Cc1nc(C2CC(=O)OC23CCCCC3)cs1 (stereo not given)	inactive: 2.17%
COc1ccc(C(=O)O)cc1F	inactive: -4.03%
COc1cccc(OCc2cc(C3Nc4ccccc4C(=O)N3Cc3ccco3)ccc2OC)c1 (stereo not given)	inactive: -4.77%
Cc1ccc(C2CC(c3cccs3)=NN2C(=O)c2ccco2)o1 (stereo not given)	inactive: 6.03%
COc1cc(CNc2ccc(C)c(C)c2)cc(OC)c1OC	inactive: 13.4%
CC(=O)N[C@@H](CS)C(=O)O	inactive: 3.67%
O=C(CNC(=O)OCc1ccccc1)NC1CCCCCC1	inactive: 5.59%
O=C(OCC(O)C(O)COC(=O)c1ccccc1)c1ccccc1 (stereo not given)	inactive: -1.38%
O=C(CCc1ccccc1)Nc1ccccc1C(F)(F)F	inactive: -4.86%
CC(=O)c1c(C)c(C)c2n1CCn1c(C)ccc1-2	inactive: 6.96%
COc1cc(CC(=O)NCCc2ccc(S(N)(=O)=O)cc2)cc(OC)c1OC	inactive: -0.242%
COc1ccc(C(=O)CCN2CCc3cc(OC)c(OC)cc3C2)cc1	inactive: 4.16%
Cc1cccc(OCC(=O)Nc2ccc(C(=O)NCC(C)C)cc2)c1	inactive: 0.532%
CC(=O)NC(CC(C)C)C(=O)NC(Cc1ccccc1)C(N)=O (stereo not given)	inactive: 2.06%
Cc1c(OCC(=O)NC(Cc2c[nH]c3ccc(O)cc23)C(=O)O)ccc2c3c(c(=O)oc12)CCC3 (stereo not given)	inactive: 5.25%
Cc1ccnc(NS(=O)(=O)c2ccc(N)cc2)n1	inactive: -0.741%
NC(=O)OCC(COC(N)=O)c1ccccc1	inactive: -16.6%
CC1(C#CC[N+]2(C)CCCCC2)CCC2C(O1)c1ccccc1OC2(C)C (stereo not given)	inactive: -9.86%
Cc1ccc(C(=O)COC(=O)c2cccc(N3C(=O)c4c(C)nc5ccccc5c4C3=O)c2)cc1C	inactive: 2.21%

Structure (SMILES)	growth inhibition
Cc1cc(O)c(C(C)C)cc1C1(c2cc(C(C)C)c(O)cc2C)OC(=O)c2ccccc21	inactive: -1.02%
CCCCCC(O)c1cccc(OCc2ccc3ccccc3n2)c1 (stereo not given)	inactive: -0.258%
COc1ccc(C2CC(c3ccc([N+](=O)[O-])cc3)=NN2C(=O)c2ccccc2)cc1OC (stereo not given)	inactive: -6.56%
CC(=O)N1CC2(C)CN(C(C)=O)CC(C)(C1)C2	inactive: -1.23%
O=c1ccn([C@@H]2O[C@H](CO)[C@@H](O)[C@H]2O)c(=O)[nH]1	inactive: -0.389%
Cc1cc(OC(C(=O)O)c2ccccc2)c2c(C)c(Cc3ccccc3)c(=O)oc2c1 (stereo not given)	inactive: 10.3%
C[N+]12CCCCC1C(COC(=O)c1ccc3c(c1)OCO3)CCC2 (stereo not given)	inactive: 1.34%
CCCCNc1cc(C(=O)O)cc(S(N)(=O)=O)c1Oc1ccccc1	inactive: -6.02%
CC1(C)CC(CC(=O)O)(c2ccc(Cl)cc2)CCO1 (stereo not given)	inactive: 4.78%
COc1c2c(nc3occc13)C(CC=C(C)C)(OC)C(O)CC2 (stereo not given)	inactive: 3.58%
CC(=O)N(CCC1(c2ccc(C)cc2)CCOC(C(C)C)C1)Cc1ccco1 (stereo not given)	inactive: 8.66%
O=C(CCCN1C(=O)/C(=C\c2cccs2)SC1=S)Nc1ccccn1	inactive: -17.8%
O=C(O)CCn1cnc2ccccc2c1=O	inactive: 3.53%
CC(=O)CCCCn1c(=O)c2c(ncn2C)n(C)c1=O	inactive: 6.87%
O=C1CCCN1CCCn1cnc2c([nH]c3ccc(F)cc32)c1=O	inactive: -13.8%
Cc1cccc2c(=O)n3c(nc12)CCCCC3	inactive: -0.943%
O=C(NCCN1CCOCC1)c1ccc(Cl)cc1	inactive: -11.2%
Cc1cc(OC(=O)CNC(=O)OC(C)(C)C)c2c(C)cc(=O)oc2c1	inactive: -4.76%
CCCCCC(=O)O[C@]1(C(C)=O)CC[C@H]2[C@@H]3CCC4=CC(=O)CC[C@]4(C)[C@H]3CC[C@@]21C	inactive: -0.835%
CNCCCC12CCC(c3ccccc31)c1ccccc12	inactive: -0.462% and inactive: -4.64%
Oc1ccc(Oc2ncc(Cl)cc2Cl)cc1	inactive: 3.39%
CCOC(=O)N1CCc2[nH]c3ccc(C)cc3c2C1	inactive: -0.0125%
Cc1nc(N[C@@H](Cc2c[nH]c3ccccc23)C(=O)O)c2oc3ccccc3c2n1	inactive: 3.43%
O=C(Oc1ccccc1)Oc1ccc2c(c1)oc(=O)c1ccccc12	inactive: -11.1%

Structure (SMILES)	growth inhibition
O=C(O)c1ccc(OCCn2ccnc2)cc1	inactive: -4.4%
C#C[C@]1(O)CC[C@H]2[C@@H]3CCc4cc(O)ccc4[C@H]3CC[C@@]21C	inactive: -6.87%
Cc1occc(=O)c1O	inactive: -24.5%
CCOCCn1c(C(C)O)nc2ccccc21 (stereo not given)	inactive: -8.58%
COc1cc2c(cc1OC)C(c1ccccc1)=NCC2	inactive: -0.804%
CCC12CN3CC(CC)(CN(C1)C31C(=O)N(C)c3ccc(C)cc31)C2=O (stereo not given)	inactive: -2.64%
Cn1cnc2c1c(=O)n(CC(O)CO)c(=O)n2C (stereo not given)	inactive: -5.12%
CC(=O)OCC(=O)[C@@]1(O)[C@H](C)C[C@H]2[C@@H]3CCC4=CC(=O)C=C[C@]4(C)[C@@]3(F)[C@@H](O)C[C@@]21C	inactive: 2.48%
Cc1ccccc1NC(=O)NCCc1c[nH]c2ccccc12	inactive: 17.7%
O=c1c2[nH]c3ccccc3c2ncn1CCC1=CCCCC1	inactive: -4.48%
Nc1nc2c(ncn2COCCO)c(=O)[nH]1	inactive: -13.5%
COc1ccc2nc(Nc3nc(CSc4ccc(C)cc4)cc(=O)[nH]3)nc(C)c2c1	inactive: -3.26%
Cc1ccc([N+](=O)[O-])cc1NC1OC(CO)C(O)C1O (stereo not given)	inactive: 8.08%
Cc1ccccc1NC(=O)c1c(C)cc(=O)oc1C	inactive: 0.286%
O=C(CNC(=O)OCc1ccccc1)Oc1cc2oc(=O)cc(-c3ccccc3)c2cc1Cl	inactive: -18.5%
CC1(C)Cc2nc3oc4c(NCc5ccccc5)ncnc4c3cc2CO1	inactive: 0.415%
CCCC1O[C@@H]2C[C@H]3[C@@H]4CCC5=CC(=O)C=C[C@]5(C)[C@H]4[C@@H](O)C[C@]3(C)[C@]2(C(=O)CO)O1 (stereo not given in full)	inactive: -1.85%
CC(=O)N1CCN2C(=O)C1CCCC(=O)c1cc(C(C)C)ccc12 (stereo not given)	inactive: -1.87%
CCOC(=O)c1ncn2c1CN(C)C(=O)c1cc(F)ccc1-2	inactive: 6%
CCOC(=O)Cc1c(C)nc(N)[nH]c1=O	inactive: -8.02%
COc1cc(SC)ccc1C(=O)NC(C)C	inactive: -1.25%
COc1ccc(C(=O)NCCC2=CCCCC2)cc1[N+](=O)[O-]	inactive: 15.1%
Cc1oc2cc(O)cc(O)c2c(=O)c1-c1ccc2c(c1)OCCCO2	inactive: -2.88%
CC(C(=O)O)c1cccc(C(=O)c2ccccc2)c1 (stereo not given)	inactive: 9.39%

Some of the entries so far, with bars between the fields:
Structure (SMILES) | growth inhibition
CCCCCC(=O)O[C@]1(C(C)=O)CC[C@H]2[C@@H]3CCC4=CC(=O)CC[C@]4(C)[C@H]3CC[C@@]21C | inactive: -0.835%
CNCCCC12CCC(c3ccccc31)c1ccccc12 | inactive: -0.462% and inactive: -4.64%
Oc1ccc(Oc2ncc(Cl)cc2Cl)cc1 | inactive: 3.39%
CCOC(=O)N1CCc2[nH]c3ccc(C)cc3c2C1 | inactive: -0.0125%
Cc1nc(N[C@@H](Cc2c[nH]c3ccccc23)C(=O)O)c2oc3ccccc3c2n1 | inactive: 3.43%
O=C(Oc1ccccc1)Oc1ccc2c(c1)oc(=O)c1ccccc12 | inactive: -11.1%
O=C(O)c1ccc(OCCn2ccnc2)cc1 | inactive: -4.4%
C#C[C@]1(O)CC[C@H]2[C@@H]3CCc4cc(O)ccc4[C@H]3CC[C@@]21C | inactive: -6.87%
Cc1occc(=O)c1O | inactive: -24.5%
CCOCCn1c(C(C)O)nc2ccccc21 (stereo not given) | inactive: -8.58%
COc1cc2c(cc1OC)C(c1ccccc1)=NCC2 | inactive: -0.804%
CCC12CN3CC(CC)(CN(C1)C31C(=O)N(C)c3ccc(C)cc31)C2=O (stereo not given) | inactive: -2.64%
Cn1cnc2c1c(=O)n(CC(O)CO)c(=O)n2C (stereo not given) | inactive: -5.12%
CC(=O)OCC(=O)[C@@]1(O)[C@H](C)C[C@H]2[C@@H]3CCC4=CC(=O)C=C[C@]4(C)[C@@]3(F)[C@@H](O)C[C@@]21C | inactive: 2.48%
Cc1ccccc1NC(=O)NCCc1c[nH]c2ccccc12 | inactive: 17.7%
O=c1c2[nH]c3ccccc3c2ncn1CCC1=CCCCC1 | inactive: -4.48%
Nc1nc2c(ncn2COCCO)c(=O)[nH]1 | inactive: -13.5%
COc1ccc2nc(Nc3nc(CSc4ccc(C)cc4)cc(=O)[nH]3)nc(C)c2c1 | inactive: -3.26%
Cc1ccc([N+](=O)[O-])cc1NC1OC(CO)C(O)C1O (stereo not given) | inactive: 8.08%
Cc1ccccc1NC(=O)c1c(C)cc(=O)oc1C | inactive: 0.286%
O=C(CNC(=O)OCc1ccccc1)Oc1cc2oc(=O)cc(-c3ccccc3)c2cc1Cl | inactive: -18.5%
CC1(C)Cc2nc3oc4c(NCc5ccccc5)ncnc4c3cc2CO1 | inactive: 0.415%
CCCC1O[C@@H]2C[C@H]3[C@@H]4CCC5=CC(=O)C=C[C@]5(C)[C@H]4[C@@H](O)C[C@]3(C)[C@]2(C(=O)CO)O1 (stereo not given in full) | inactive: -1.85%
CC(=O)N1CCN2C(=O)C1CCCC(=O)c1cc(C(C)C)ccc12 (stereo not given) | inactive: -1.87%
CCOC(=O)c1ncn2c1CN(C)C(=O)c1cc(F)ccc1-2 | inactive: 6%
CCOC(=O)Cc1c(C)nc(N)[nH]c1=O | inactive: -8.02%
COc1cc(SC)ccc1C(=O)NC(C)C | inactive: -1.25%
COc1ccc(C(=O)NCCC2=CCCCC2)cc1[N+](=O)[O-] | inactive: 15.1%

Next structures

Structure (SMILES)	growth inhibition
Cc1ccc2nc(NC3=NC(CC(=O)O)C(=O)N3)nc(C)c2c1 (stereo not given)	inactive: -13.3%
COc1ccc2[nH]c3c(c2c1)CCn1c-3nc2ccccc2c1=O	inactive: 0.118%
CC(=O)[C@@]1(O)CC[C@H]2[C@@H]3C[C@H](C)C4=CC(=O)CC[C@]4(C)[C@H]3CC[C@@]21C	inactive: -6.37%
CC1(C)S[C@@H]2[C@H](NC(=O)C(C(=O)O)c3ccccc3)C(=O)N2[C@H]1C(=O)O (stereo not given in full)	inactive: 1.42%
OCC1(CCOc2ccccc2)CCN(CCCn2cccn2)CC1	inactive: -9.52%
Cn1c2ccc(CC(=O)O)cc2c2cc(CC(=O)O)ccc21	inactive: -2.96%
NS(=O)(=O)c1cc2c(cc1Cl)NC(CSCc1ccccc1)=NS2(=O)=O	inactive: -3.54%
CCNC(=O)c1sc2cc(C)ccc2c1Cl	inactive: 0.572%
COc1cc(NC(=O)N[C@@H](Cc2ccccc2)C(=O)O)cc(OC)c1	inactive: 5.35%
Cc1cc(NS(=O)(=O)c2ccc(N)cc2)no1	inactive: 2.57%
Oc1ccc(COCc2ccccc2)c2cccnc12	inactive: -6.18%
O=C(O)c1cc2cc(Cl)cc(Cl)c2oc1=O	inactive: -6.7%
C[C@]12C[C@H](O)[C@H]3[C@@H](CCC4=CC(=O)CC[C@@]43C)[C@@H]1CC[C@@H]2C(=O)CO	inactive: -1.92%
O=C(NC(Nc1ccccn1)C(Cl)(Cl)Cl)c1ccccc1 (stereo not given)	inactive: -5.72%
COc1ccc(NC(=S)NCCc2c[nH]c3ccccc23)cc1	inactive: -20.9%
O=C(NCCNc1ccc(Cl)cc1[N+](=O)[O-])c1cccnc1	inactive: 1.09%
CC(C)Oc1ccc(C2CC(=O)N(c3ccc(C(=O)O)cc3)C2=O)cc1 (stereo not given)	inactive: -11.1%
c1ccc(-c2ccccn2)nc1	inactive: -14.8%
COCCOC(=O)C1=C(N)OC2=C(C(=O)CCC2)C1c1cccnc1 (stereo not given)	inactive: -3.23%
CCSc1nc(O)c(C2OC(=O)c3c2ccc(OC)c3OC)c(=O)n1CC (stereo not given)	inactive: 9.9%
CCN(CC)C(=S)SSC(=S)N(CC)CC	inactive: 68%
COc1cc2cc(C(=O)O)n(C)c2c(OC)c1OC	inactive: -14.5%
CCOC(=O)C(NC(C)=O)C(O)c1ccc([N+](=O)[O-])cc1 (stereo not given)	inactive: -10.7%

Reference: PubChem BioAssay AID504594 (Broad Institute, 2011)
